The target in the data set is cMet (HGFR) on NCI-H1838 cells (human) (UniProt P08581). The data set is described as follows: flow cytometry. Particulars: four 5-(1-dodecynyl)-2'-deoxyuridine residues at 5' end, protein on the cell surface, label: 5'-Atto647N. (In flow cytometry, cells or beads pass a laser one at a time.)

Where cells or extracts were used, other partners may take part. A negative result means that nothing was seen under these conditions.

Take “TGGATGGTAGCTCGGTCGGGGTGGGTGGGTTGGCAAGTCT [Atto647N-trCLN3-L4 (Atto647N-3)]”: the binding result (strong uptake at 37 C (1 and 10 uM), weak membrane-localized signal at 4 C, confocal and flow, folded or branched DNA, variant of trCLN3-L4) is reported as “binds”.

For “TGGATGATAGCTCGGTCGGGGTGGATGGGTTGGCAAGTCT [Atto647N-trCLN3.mut-L4 (Atto647N.mut-3)]”, the binding result (marginal staining, minimal shift, 37 C, single-stranded DNA, variant of Atto647N-trCLN3-L4 (Atto647N-3)) was “no binding”.
